Measured values published in patent US20120088276.
Construct, isoform or probe ends are uncertain for at least one entry. Where a protein sequence is shown, tags need not be part of it.

Target: T1, Ref (bacteriophage P1) (Bacteriophage P1) (UniProt P35926)
T1 sequence: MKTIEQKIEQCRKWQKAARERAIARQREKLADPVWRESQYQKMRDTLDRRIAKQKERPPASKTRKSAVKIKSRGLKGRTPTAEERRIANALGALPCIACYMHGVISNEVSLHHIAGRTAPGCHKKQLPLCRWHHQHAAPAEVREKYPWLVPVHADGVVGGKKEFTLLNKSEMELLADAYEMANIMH
Test: EMSA
Conditions: no RecA, Mg2+ buffer A, 37 C, binds without cleavage, purified recombinant protein

Sequence	binding result (label: 3' 6-FAM, single-stranded DNA)	binding result (label: 3' 6-FAM on den7)
GGCCTCGCGGTAGCTGAGCTCGGAGCGCACGATTCGCACTGCTGATGTTC [den7 50-mer]	binds	
GGCCTCGCGGTAGCTGAGCTCGGAGCGCACGATTCGCACTGCTGATGTTC (double strand) [den7/den10 duplex]		binds
